Reference: patent US20260022160A1 (AFFYXELL THERAPEUTICS, published 2026)
Results are given in words; binding and its absence hold for the method and conditions named. Some entries that bind do so weakly or less than the wild type.

T1: human CD40L (human, UniProt P29965 113-261, limits assumed)
T1 sequence (looked up): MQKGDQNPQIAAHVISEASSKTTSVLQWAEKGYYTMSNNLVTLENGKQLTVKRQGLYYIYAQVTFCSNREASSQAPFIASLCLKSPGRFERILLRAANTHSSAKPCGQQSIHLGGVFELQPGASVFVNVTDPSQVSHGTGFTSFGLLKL

B1: stefin A protein variant clone 248 (designed binder)
chain: MIPGGLSEAKPATPEIQEIVDKVKPQLEEKTGETYGKLEAVQYKTQVVYDELYHEKAGTNYYIKVRAGDNKYMHLKVFKSLEYKFRNLEEDLVLTGYQVDKNKDDELTGF
B2: stefin A protein variant clone 249 (designed binder)
chain: MIPGGLSEAKPATPEIQEIVDKVKPQLEEKTGETYGKLEAVQYKTQVVSWYYPKNVLGTNYYIKVRAGDNKYMHLKVFKSLEDFIAADDDEDLVLTGYQVDKNKDDELTGF
B3: stefin A protein variant clone 250 (designed binder)
chain: MIPGGLSEAKPATPEIQEIVDKVKPQLEEKTGETYGKLEAVQYKTQVVFLEWHFWEWGTNYYIKVRAGDNKYMHLKVFKSLDSQEFPSHLEDLVLTGYQVDKNKDDELTGF
B4: stefin A protein variant clone 251 (designed binder)
chain: MIPGGLSEAKPATPEIQEIVDKVKPQLEEKTGETYGKLEAVQYKTQVVSWVRGTNQLGTNYYIKVRAGDNKYMHLKVFKSLEPDWPDFLIEDLVLTGYQVDKNKDDELTGF
B5: stefin A protein variant clone 252 (designed binder)
chain: MIPGGLSEAKPATPEIQEIVDKVKPQLEEKTGETYGKLEAVQYKTQVVWRKLLSWWKGTNYYIKVRAGDNKYMHLKVFKSLILNPKSWNFEDLVLTGYQVDKNKDDELTGF
B6: stefin A protein variant clone 253 (designed binder)
chain: MIPGGLSEAKPATPEIQEIVDKVKPQLEEKTGETYGKLEAVQYKTQVVPKSHQTNEQGTNYYIKVRAGDNKYMHLKVFKSLWNENHFSVWEDLVLTGYQVDKNKDDELTGF
B7: stefin A protein variant clone 254 (designed binder)
chain: MIPGGLSEAKPATPEIQEIVDKVKPQLEEKTGETYGKLEAVQYKTQVVNWNQIDNPLGTNYYIKVRAGDNKYMHLKVFKSLNKDWEDQIIEDLVLTGYQVDKNKDDELTGF
B8: stefin A protein variant clone 255 (designed binder)
chain: MIPGGLSEAKPATPEIQEIVDKVKPQLEEKTGETYGKLEAVQYKTQVVFWVGLHNQLGTNYYIKVRAGDNKYMHLKVFKSLYYNGDNTQIEDLVLTGYQVDKNKDDELTGF
B9: stefin A protein variant clone 256 (designed binder)
chain: MIPGGLSEAKPATPEIQEIVDKVKPQLEEKTGETYGKLEAVQYKTQVVFTQPFNEPIGTNYYIKVRAGDNKYMHLKVFKSLYWDDKVGYYEDLVLTGYQVDKNKDDELTGF
B10: stefin A protein variant clone 257 (designed binder)
chain: MIPGGLSEAKPATPEIQEIVDKVKPQLEEKTGETYGKLEAVQYKTQVVPEYQPQPKAGTNYYIKVRAGDNKYMHLKVFKSLFHFRKPQDREDLVLTGYQVDKNKDDELTGF
B11: stefin A protein variant clone 258 (designed binder)
chain: MIPGGLSEAKPATPEIQEIVDKVKPQLEEKTGETYGKLEAVQYKTQVVNDPYFQSFSGTNYYIKVRAGDNKYMHLKVFKSLPYWYREPENEDLVLTGYQVDKNKDDELTGF
B12: stefin A protein variant clone 259 (designed binder)
chain: MIPGGLSEAKPATPEIQEIVDKVKPQLEEKTGETYGKLEAVQYKTQVVHQDDVAWQSGTNYYIKVRAGDNKYMHLKVFKSLEYGWYHLPYEDLVLTGYQVDKNKDDELTGF
B13: stefin A protein variant clone 260 (designed binder)
chain: MIPGGLSEAKPATPEIQEIVDKVKPQLEEKTGETYGKLEAVQYKTQVVKGYFHTVEAGTNYYIKVRAGDNKYMHLKVFKSLTYHFRTDLNEDLVLTGYQVDKNKDDELTGF
B14: stefin A protein variant clone 261 (designed binder)
chain: MIPGGLSEAKPATPEIQEIVDKVKPQLEEKTGETYGKLEAVQYKTQVVVDQVWSENAGTNYYIKVRAGDNKYMHLKVFKSLPYLWRKHAVEDLVLTGYQVDKNKDDELTGF
B15: stefin A protein variant clone 262 (designed binder)
chain: MIPGGLSEAKPATPEIQEIVDKVKPQLEEKTGETYGKLEAVQYKTQVVLSSIWQDVAGTNYYIKVRAGDNKYMHLKVFKSLLYQFRKEPVEDLVLTGYQVDKNKDDELTGF
B16: stefin A protein variant clone 263 (designed binder)
chain: MIPGGLSEAKPATPEIQEIVDKVKPQLEEKTGETYGKLEAVQYKTQVVTASLYWNYAGTNYYIKVRAGDNKYMHLKVFKSLFYYRGPQPVEDLVLTGYQVDKNKDDELTGF
B17: stefin A protein variant clone 264 (designed binder)
chain: MIPGGLSEAKPATPEIQEIVDKVKPQLEEKTGETYGKLEAVQYKTQVVSWKQWHNYLGTNYYIKVRAGDNKYMHLKVFKSLYPDGDLILYEDLVLTGYQVDKNKDDELTGF
B18: stefin A protein variant clone 265 (designed binder)
chain: MIPGGLSEAKPATPEIQEIVDKVKPQLEEKTGETYGKLEAVQYKTQVVQVHLDNSPLGTNYYIKVRAGDNKYMHLKVFKSLQFGEIIWWEEDLVLTGYQVDKNKDDELTGF
B19: stefin A protein variant clone 266 (designed binder)
chain: MIPGGLSEAKPATPEIQEIVDKVKPQLEEKTGETYGKLEAVQYKTQVVQNNWYLSNYGTNYYIKVRAGDNKYMHLKVFKSLVEERWGLWVEDLVLTGYQVDKNKDDELTGF
B20: stefin A protein variant clone 267 (designed binder)
chain: MIPGGLSEAKPATPEIQEIVDKVKPQLEEKTGETYGKLEAVQYKTQVVWEWALLLEYGTNYYIKVRAGDNKYMHLKVFKSLHHPWQPAKQEDLVLTGYQVDKNKDDELTGF
B21: stefin A protein variant clone 268 (designed binder)
chain: MIPGGLSEAKPATPEIQEIVDKVKPQLEEKTGETYGKLEAVQYKTQVVGDSYWEYVSGTNYYIKVRAGDNKYMHLKVFKSLPYRWRPDHAEDLVLTGYQVDKNKDDELTGF
B22: stefin A protein variant clone 269 (designed binder)
chain: MIPGGLSEAKPATPEIQEIVDKVKPQLEEKTGETYGKLEAVQYKTQVVGQKWWQHKIGTNYYIKVRAGDNKYMHLKVFKSLHSNAWNLQHEDLVLTGYQVDKNKDDELTGF
B23: stefin A protein variant clone 270 (designed binder)
chain: MIPGGLSEAKPATPEIQEIVDKVKPQLEEKTGETYGKLEAVQYKTQVVLDGLYHVNSGTNYYIKVRAGDNKYMHLKVFKSLFYYYRSEPTEDLVLTGYQVDKNKDDELTGF
B24: stefin A protein variant clone 271 (designed binder)
chain: MIPGGLSEAKPATPEIQEIVDKVKPQLEEKTGETYGKLEAVQYKTQVVHAPAPVQAIGTNYYIKVRAGDNKYMHLKVFKSLPYWYRPNRPEDLVLTGYQVDKNKDDELTGF
B25: stefin A protein variant clone 272 (designed binder)
chain: MIPGGLSEAKPATPEIQEIVDKVKPQLEEKTGETYGKLEAVQYKTQVVWEDHWNYQYGTNYYIKVRAGDNKYMHLKVFKSLELYSNQIVWEDLVLTGYQVDKNKDDELTGF
B26: stefin A protein variant clone 273 (designed binder)
chain: MIPGGLSEAKPATPEIQEIVDKVKPQLEEKTGETYGKLEAVQYKTQVVSWRYKSNQLGTNYYIKVRAGDNKYMHLKVFKSLYKDWVVNPPEDLVLTGYQVDKNKDDELTGF
B27: stefin A protein variant clone 274 (designed binder)
chain: MIPGGLSEAKPATPEIQEIVDKVKPQLEEKTGETYGKLEAVQYKTQVVRVDWWLPEVGTNYYIKVRAGDNKYMHLKVFKSLPYQYRKDPKEDLVLTGYQVDKNKDDELTGF
B28: stefin A protein variant clone 275 (designed binder)
chain: MIPGGLSEAKPATPEIQEIVDKVKPQLEEKTGETYGKLEAVQYKTQVVSWIEISNQLGTNYYIKVRAGDNKYMHLKVFKSLYYGNTSILIEDLVLTGYQVDKNKDDELTGF
B29: stefin A protein variant clone 276 (designed binder)
chain: MIPGGLSEAKPATPEIQEIVDKVKPQLEEKTGETYGKLEAVQYKTQVVSLGQAETWAGTNYYIKVRAGDNKYMHLKVFKSLFKYRHQQDKEDLVLTGYQVDKNKDDELTGF
B30: stefin A protein variant clone 278 (designed binder)
chain: MIPGGLSEAKPATPEIQEIVDKVKPQLEEKTGETYGKLEAVQYKTQVVKIGQLPSRVGTNYYIKVRAGDNKYMHLKVFKSLYWYRNPADREDLVLTGYQVDKNKDDELTGF
B31: stefin A protein variant clone 279 (designed binder)
chain: MIPGGLSEAKPATPEIQEIVDKVKPQLEEKTGETYGKLEAVQYKTQVVAWHTKNNSIGTNYYIKVRAGDNKYMHLKVFKSLETKLAHEDIEDLVLTGYQVDKNKDDELTGF
B32: stefin A protein variant clone 280 (designed binder)
chain: MIPGGLSEAKPATPEIQEIVDKVKPQLEEKTGETYGKLEAVQYKTQVVQTKLVTWWWGTNYYIKVRAGDNKYMHLKVFKSLLGEQYIDVDEDLVLTGYQVDKNKDDELTGF
B33: stefin A protein variant clone 281 (designed binder)
chain: MIPGGLSEAKPATPEIQEIVDKVKPQLEEKTGETYGKLEAVQYKTQVVAVFDYADPSGTNYYIKVRAGDNKYMHLKVFKSLPYRYRTHHKEDLVLTGYQVDKNKDDELTGF
B34: stefin A protein variant clone 282 (designed binder)
chain: MIPGGLSEAKPATPEIQEIVDKVKPQLEEKTGETYGKLEAVQYKTQVVHVKIVTWWKGTNYYIKVRAGDNKYMHLKVFKSLYNPKPGIDNEDLVLTGYQVDKNKDDELTGF
B35: stefin A protein variant clone 283 (designed binder)
chain: MIPGGLSEAKPATPEIQEIVDKVKPQLEEKTGETYGKLEAVQYKTQVVHVLKVSSVSGTNYYIKVRAGDNKYMHLKVFKSLFYYRKRYDREDLVLTGYQVDKNKDDELTGF

These binders were tested against T1, human CD40L (assay: ELISA, bacterial lysate on plate-bound human CD40L, anti-Myc tag detection).

binding, binds:
B1
B2
B3
B4
B5
B6
B7
B8
B9
B10
B11
B12
B13
B14
B15
B16
B17
B18
B19
B20
B21
B22
B23
B24
B25
B26
B27
B28
B29
B30
B31
B32
B33
B34
B35
